Source: patent US10908141B2, “Methods and kits for detecting non-luminescent or weakly luminescent metals” (New York University, priority 2012, dated 2021)

Test: In vitro time-resolved fluorescent detection of sensitized Gd chelate with DTPA-Tb
Conditions: collision model fit, ±s.e.

## carbostyril-124-diethylenetriaminepentaacetic acid-Gadolinium [cs124-DTPA-Gd]
  Probability of electron transfer upon collision: 0.82±0.005694
